PubChem BioAssay AID1508600 (Functional Genomics Laboratory (NCATS/FGL), 2020)
Screen size: about 53,000 sequences; about 3,700 (7%) were called active.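 How the source made its calls: active means gene knockdowns whose robust z-score for IL-1 alpha signal is at least 2 or at most -2, so actives lie on both sides; inactive means the rest.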 The list shows a part of the results.

Test: Components of the Cytosolic LPS Sensing Pathway: Gene Identification via Genome-wide siRNA Screen;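 further: robust z of the log signal after scaling to non-targeting control siRNA wells of the plate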
Settings: RAW264.7 macrophages, IL-1a HTRF, actives lie on both sides, screened at 100 nM (by protocol), cells primed 5 h with Pam3CSK4 first
Outline: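 Three distinct siRNAs per gene were tested singly at 100 nM in RAW264.7 macrophages. Following Pam3CSK4 priming and 24 hour LipidA transfection, IL-1a secretion was read by HTRF.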
With CCUUCCUAAGCUUACACAATT against Cradd the z-score was inactive: 0.598. For GCAAGUAACAAUCGCUUAUTT against Wdr47, the z-score was inactive: 0.394. For GGUGCUGUAUUUGAUGUUATT against Nudt6, the z-score was inactive: 0.544. In the case of CCAGUACUCACUAGAUUUATT against Tnfsf18, the z-score is reported as inactive: 1.17. In the case of GCACUGGAAAUUGUAUAAATT against Hyal6, the z-score is reported as active: 2.19. For GGAAAACAAGAGAAGGCGCTT against Pom121, the z-score was inactive: 0.361. With GGAAACUUAUGGAAAGUCUTT against Trmt11 the z-score was inactive: 0.606. For GAGUAUGCUACCAAUUCCUTT against Olfr1141, the z-score was inactive: 0.776. For CCUACGUUCAAGACUCGAGTT against Ptgir, the z-score was inactive: 1.47. In the case of GGCAAAGCAUAUUUUUCUATT against Med17, the z-score is reported as inactive: -0.138. For GCAAUUGAGACUGGCCUCATT against Olfr151, the z-score was inactive: 0.253. In the case of GCAUCAUCGUGGGAAACCUTT against Olfr1284, the z-score is reported as inactive: 0.331. For GGUUGGCAUGUUUGGUGUUTT against Arhgap35, the z-score was inactive: -0.451. For GGGAAAGCAAAAAUAAUCUTT against Pdpn, the z-score was inactive: 1.11. In the case of CCUGUUGUCAUGCACUUUATT against Pla2g4c, the z-score is reported as inactive: -0.99. With UCCUCUCUCUAUAUUUCUUTT against Defb38 the z-score was inactive: -0.588. With GGACAUUUGAGCUCAAGAUTT against Mrpl11 the z-score was inactive: 0.609. In the case of GGCAAGCACACAAUGAUGCTT against Plin5, the z-score is reported as inactive: -0.0222. With GGCGAGUCUACGUGACACUTT against Arrb1 the z-score was inactive: 0.701. In the case of GGUGCCGCACACAAACAAUTT against Hipk2, the z-score is reported as active: -2.02. In the case of GGAUCAUUAAGACCCAGCATT against Ddx59, the z-score is reported as inactive: -1.36. For GGCGUAAGUUGGAUUUGUUTT against Idh3b, the z-score was inactive: 0.652. In the case of GGCAGAUGAUCCCGGGAUUTT against Clvs1, the z-score is reported as inactive: 0.545. For GGGUUGAAGUUUGUCGAAATT against Nlgn1, the z-score was inactive: 0.496. For GGAAGAUUCGUUCAGACCUTT against Cntf, the z-score was inactive: -0.743. With GGGCUCUUGUGUUAAGGCATT against Krt27 the z-score was inactive: -0.119. For GGCAUUUGAAAUGCUCAUCTT against Aadat, the z-score was inactive: -1.7. For GCACGCCUGAUGCUAGAGATT against Gss, the z-score was inactive: -0.0299. For GGCAAUAAGUAAACACCUGTT against Hnf4aos, the z-score was inactive: 0.364. With GGAGGAAUUUGGCUAUAAUTT against Arfip2 the z-score was inactive: 0.122. With CGGUCCUGAGGAAGUGUUATT against Wfdc1 the z-score was inactive: 0.655. For GGAAAAUGUCCGUAAAAGGTT against Dtx2, the z-score was inactive: 0.196. In the case of GCACUCACGAUCAUCUUUGTT against Has1, the z-score is reported as inactive: -0.513. For GCACUAAUGACUACAUCCGTT against Cmtm4, the z-score was inactive: 1.05. For GGAGAAGAUGCCAAUCAAGTT against Mdm1, the z-score was inactive: 0.336. With GGACAUUGCUACACAACUCTT against Akp3 the z-score was inactive: -1.26. For GGCAAAUCACAUCCAACAATT against Cyp2c39, the z-score was inactive: -1.74. For GGGUGCCUUAAAAAAACUCTT against Olfr136, the z-score was inactive: 0.786. For GCGAAAGCCUCUCCAUAAGTT against Lnx1, the z-score was inactive: -0.663. In the case of GGACAAGAGGAGCUUUUGCTT against Id3, the z-score is reported as inactive: -0.446. In the case of GGCAAUACAGGCAUCUUCATT against Vmn1r-ps8, the z-score is reported as inactive: -1.54. For GGGAAACAAAAAGCAGAUATT against Ccdc47, the z-score was inactive: 0.325. In the case of GGCCUGCUUUGUUCUGAAUTT against Olfr846, the z-score is reported as active: -2.53. With GGAGUUUCUCCAAGAAAAATT against Agfg2 the z-score was inactive: 0.0363. In the case of GGCUACGACAGAAAAGACUTT against Mrpl58, the z-score is reported as inactive: 0.983. In the case of GGACUUUCGUCGUACUCGUTT against Terf1, the z-score is reported as inactive: -1.73. In the case of GGACCAUAAAACAAGUAUCTT against Carns1, the z-score is reported as inactive: -1.01. In the case of CCAAACCAGGUGUUGUCUUTT against Esam, the z-score is reported as inactive: 0.308. With “CCAACACGUUGCACAGAGUTT against A830073O21Rik” the z-score was inactive: 0.611. For CCUAAUUAUAACCCUGACCTT against Olfr845, the z-score was inactive: 0.682. In the case of GCGAUUGUCCAAGAAUUCCTT against Crcp, the z-score is reported as inactive: 0.822. With UCACCUACAGCGGAUCUCATT against Oxt the z-score was inactive: -0.821. In the case of CGACUGGAAUCUAAUAACUTT against Fgf2, the z-score is reported as inactive: 0.987. In the case of GGAUGCACUCAAGAAUUACTT against Ccdc65, the z-score is reported as active: 2.11. With GGAGUGCUUGAAGAACAUATT against Kcnk7 the z-score was inactive: -1.26. For GGACAAAAGACUUGAAUUUTT against Alox15, the z-score was inactive: 1.86. With CCAUUCCAGUUAUGUCAAUTT against Pus3 the z-score was inactive: -1.06. In the case of CCUUGGGACUGACUGUAAGTT against Ptrh2, the z-score is reported as inactive: -0.887. In the case of GGAGUACACGUUCAUCAUCTT against Clstn2, the z-score is reported as inactive: 0.643. For CGAAACACUCAAGGUUGUATT against Creb3l2, the z-score was inactive: -0.314. With GGUAUUCCCUAGAGAUAAATT against Olfr1241 the z-score was inactive: 0.732. For GGGUGUAGCAUUGUCACAGTT against Olfr1133, the z-score was active: 2.32. With GGAACCUUUGAGAAUAUGATT against Spats2 the z-score was inactive: 0.17. With CCGUAUAAGUUUACGUUUATT against Tm9sf2 the z-score was inactive: 0.761. In the case of GGCUAACCAGAGGAAAAACTT against Rph3a, the z-score is reported as active: -2.19. For GGGCAAUCCUGAAUUGGUUTT against Atp2b4, the z-score was inactive: 1.23. With GGAGUUCAAAGAUGCAAUUTT against Zfyve27 the z-score was active: 2.33. For GGGUUUCUGGGACUUCACCTT against Bgn, the z-score was inactive: -0.911.
